The conditions of series [1]: aqueous assay medium, from DMSO stock.
Another series concerns BEAS-2B cells. Nature of the series: Mammalian cytotoxicity (resazurin cell viability), POS and EBA. It is filed as cell-based, human. The following applies: drug alone. Here is the method: (§1) To examine whether the inhibitory effect of the antifungal and antihistamine combinations is specific to fungal cells, the combinations were tested with 4 mammalian cell lines: A459, BEAS-2B, HEK-293, and HaCaT. […] The assays were done in 96-well plates. A549 and BEAS-2B cells were plated at a density of 3×10^3 cells/mL, HaCaT were plated at 2×10^4 cells/mL, and HEK-293 cells were plated at 1×10^4 cells/mL as determined by using a hemacytometer. […] All assays were done in quadruplicate.
For orientation: The colour change of resazurin is a common sign of viable cells or microbes.

The subject of a further series is HEK-293 cells. Described as above. Format: cell-based, human. The conditions noted are these: drug alone. Here is the method:
as §1

Another series relates to A549 cells. The series is described as above. It is filed as cell-based, human. The following applies: drug alone. Here is the method: as §1
For series [2], the system named is C. glabrata ATCC 2001 (strain H) biofilm. Nature of the series: Biofilm disruption assay (XTT, SMIC90), POS and EBA. Format: cell-based, Candida glabrata. Here is the method:
Biofilm disruption assays. […] Biofilm assays were performed in 96-well plates using XTT [2,3-bis(2-methoxy-4-nitro-5-sulfophenyl)-2H-tetrazolium-5-carboxanilide] to measure the viability of the biofilm as previously described. An overnight culture of yeast was grown at 35° C. in YEPD medium with shaking at 200 rpm. The overnight culture was diluted in RPMI 1640 medium to an OD600 between 0.12 and 0.15 to make a working stock. Working stock was transferred to the 96-well plate in 100 μL aliquots, leaving one column empty for the sterile control. The plates were incubated at 37° C. for 24 h to allow formation of the biofilm. The medium and planktonic cells from the plate were then aspirated. PBS was then used to wash any remaining planktonic cells off of the biofilm wells. 100 μL of PBS was aliquoted into wells and then removed. The wells were washed 3 times with PBS. […] Plates were incubated at 37° C. for 24 h. Finally, the plates were washed 3 times with PBS before adding 100 μL of XTT dye. The XTT was prepared by dissolving XTT at 0.5 mg/mL concentration in sterile PBS. Before adding to a plate, 1 μL of 10 mM menadione in acetone was added to 10 mL of the 0.5 mg/mL solution of XTT. […] Plates were then read with a SpectraMax M5 plate reader (Molecular Devices, Sunnyvale, Calif., USA) for absorbance at 450 nm. […]

Series [3] has as its system C. albicans ATCC 64124 (strain F) biofilm. The description is as above. Format: cell-based, Candida albicans. Here is the method:
(§2) Biofilm disruption assays. […] Biofilm assays were performed in 96-well plates using XTT [2,3-bis(2-methoxy-4-nitro-5-sulfophenyl)-2H-tetrazolium-5-carboxanilide] to measure the viability of the biofilm as previously described. An overnight culture of yeast was grown at 35° C. in YEPD medium with shaking at 200 rpm. The overnight culture was diluted in RPMI 1640 medium to an OD600 between 0.12 and 0.15 to make a working stock. Working stock was transferred to the 96-well plate in 100 μL aliquots, leaving one column empty for the sterile control. The plates were incubated at 37° C. for 24 h to allow formation of the biofilm. The medium and planktonic cells from the plate were then aspirated. PBS was then used to wash any remaining planktonic cells off of the biofilm wells. 100 μL of PBS was aliquoted into wells and then removed. The wells were washed 3 times with PBS. […] Plates were incubated at 37° C. for 24 h. Finally, the plates were washed 3 times with PBS before adding 100 μL of XTT dye. The XTT was prepared by dissolving XTT at 0.5 mg/mL concentration in sterile PBS. Before adding to a plate, 1 μL of 10 mM menadione in acetone was added to 10 mL of the 0.5 mg/mL solution of XTT. After addition of XTT (containing menadione), the plates were incubated at 3 h at 37° C. in the dark. 80 μL of liquid from each well was transferred to a new plate. Plates were then read with a SpectraMax M5 plate reader (Molecular Devices, Sunnyvale, Calif., USA) for absorbance at 450 nm. For these experiments, we determined the sessile MIC (SMIC90), which is defined as the drug concentration required to inhibit the metabolic activity of biofilm by 90% compared to the growth control. The SMIC90 values were used to calculate the FICI as described above (TABLE 10). The plates used to determine the SMIC90 are provided in FIGS. 91A-H. Each assay was performed in duplicate.

Series [4] has as its system C. albicans ATCC 10231 (strain B) biofilm. Described as above. Format: cell-based, Candida albicans. Here is the method: as §2
Series [5] has as its system C. glabrata ATCC 2001 (strain H). In words: MIC and checkerboard assay, azoles + antihistamines. Format: cell-based, Candida glabrata. Here is the method:
(§3) Determination of minimum inhibitory concentration (MIC) values. MIC values were recorded for all antifungals and antihistamines in order to determine the concentration range of compounds to be used in the checkerboard assays.
(§4) The MIC assays were done using the broth microdilution method as described in CLSI document M27-A3 with minor modifications. Yeast cultures were started by picking a colony from a PDA plate stored at 4° C. The colonies were grown in YEPD medium overnight at 35° C. with shaking at 200 rpm. In a 96-well plate compounds were diluted lengthwise along the plate in serial 2-fold dilutions in the RPMI 1640 medium. The yeast cultures were diluted in RPMI 1640 medium to an OD600 within the range of 0.12 and 0.15 (˜1×10^6 cells/mL). The fungal cells were further diluted by taking 25 μL of fungal cells and adding them to 10 mL of RPMI 1640 medium before adding 100 μL to plate (200 μL total volume). The plates were incubated at 35° C. for 48 h. Visual inspection of the wells for no growth was used to determine the MIC. All compounds were tested in duplicate (TABLES 6 and 7).
(§5) Checkerboard assays were done as previously described to determine the fractional inhibitory concentration index (FICI). 2-fold dilutions of the azole drug were made in RPMI 1640 medium lengthwise along the plate. […] The FICI was calculated based on the formula below. […]

The test system is the same in series [6]. Nature of the series: Time-kill assay, POS and EBA. Format: cell-based, Candida glabrata. The conditions noted are these: drug alone at concentration used in MICcombination. Here is the method:
(§6) The protocol for time-kill assays followed methods previously described with minor modifications. Yeast cultures were grown overnight in YEPD medium at 35° C. with shaking at 200 rpm. A working stock of fungal cells was made by diluting cultures in 1640 medium to an OD600 of 0.125 (˜1×10^6 CFU/mL). From the working stock, 100 μL of cells was added to 4.9 mL of RPMI 1640 medium in sterile culture tubes, making the starting fungal cell concentration ˜1×10^5 CFU/mL. Drug was then added to the fungal cells. […] Treated fungal cultures were incubated in the culture tubes at 35° C. with 200 rpm shaking for 24 h. Samples were aliquoted from the different treatments at regular time points (0, 3, 6, 9, 12, and 24 h) and plated in duplicate. For each time point, cultures were vortexed, 100 μL of culture was aspirated, and 10-fold serial dilutions were made in sterile ddH2O. From the appropriate dilutions, 100 μL of fungal suspension was spread on PDA plates and incubated at 35° C. for 48 h before colony counts were determined. At 24 h, 50 μL of 1 mM resazurin in phosphate buffered saline (PBS) was added to the treatments and incubated at 35° C. with 200 rpm shaking for 2 h in the dark for visual inspection. […]

Series [7] has as its system C. albicans ATCC 10231 (strain B). Nature of the series: Time-kill assay, POS and EBA. The conditions noted are these: drug alone at concentration used in MICcombination. It is filed as cell-based, Candida albicans. Here is the method: as §6
Series [8] concerns 13 Candida spp. strains (strains A-M). In words: MIC and checkerboard assay, azoles + antihistamines, panel. It is filed as cell-based. The following applies: synergistic POS + EBA combinations; MIC of the labelled drug. Here is the method:
as §3, §4, §5

Where only a bound is given, the exact number is not on record here.

Regarding `CC(C)(C)c1ccc(C(=O)CCCN2CCC(OC(c3ccccc3)c3ccccc3)CC2)cc1` [EBA, ebastine], in series [1], the “maximal concentration where no precipitation was observed” value was determined as 25 µg/mL. Also, the “maximum concentration with no observed toxicity (complete cell survival)” value in the series on BEAS-2B cells, in the series on HEK-293 cells and in the series on A549 cells was 3.1 µg/mL throughout. In addition, the “anti-biofilm activity of combination” value in [2] (POS with EBA) is listed as “synergy”; in [3] (POS with EBA), “no activity”; in [4] (POS with EBA), “no activity”. Further, the SMIC90 in series [2] (drug alone), in series [3] (drug alone) and in series [4] (drug alone) was at least 25 µg/mL in each case. In addition, in series [5] (Nakaseomyces glabratus, ATCC2001, drug alone), the MIC was above 25 µg/mL. For the same compound, in [5] (combination POS + EBA, MIC of the labelled drug), the MIC in combination is 0.78 µg/mL. For the same compound, the “inhibition of fungal growth” value in series [6] and in series [7] was “did not inhibit fungal growth” throughout. For the same compound, the “MIC in synergistic combinations” value in series [8] fell in the range of 0.78 to 3.1 µg/mL.

As usually defined, the MIC is the lowest concentration that inhibits growth of the organism.
